Earlier results as cited in patent publication US20200129630A1, “METHODS FOR TREATING CANCER” (BicycleRD Limited, priority 2018, published 2020).
Some results were stated once for a whole list of compounds, not compound by compound.

Test system: TNBC
Settings: licensed third-line agents; cited from earlier work

For `CCCCCOC(=O)Nc1nc(=O)n([C@@H]2O[C@H](C)[C@@H](O)[C@H]2O)cc1F` [capecitabine], the ORR is listed as 9-12%.
